From patent US9078444B2, “Isothiazoline derivatives as insecticidal compounds” (Syngenta Participations AG, priority 2011, dated 2015)
Some results were stated once for a whole list of compounds, not compound by compound.

Columns and labels:
Type in all cases: in vivo
Spodoptera littoralis = Spodoptera littoralis (Egyptian cotton leafworm) cotton leaf disc test; conditions: 200 ppm sprayed on cotton leaf discs; mortality, feeding behavior, growth regulation 3 days after treatment
Protocol: Spodoptera littoralis (Egyptian Cotton Leafworm): Cotton leaf discs were placed on agar in a 24-well microtiter plate and sprayed with test solutions at an application rate of 200 ppm. After drying, the leaf discs were infested with […]. The samples were checked for mortality, feeding behavior, and growth regulation 3 days after treatment (DAT).

Tetranychus urticae = Tetranychus urticae (two-spotted spider mite) bean leaf disc test; conditions: 200 ppm sprayed on bean leaf discs, mixed ages; egg, larval and adult mortality 8 days later
Excerpt: Tetranychus urticae (Two-Spotted Spider Mite): Bean leaf discs on agar in 24-well microtiter plates were sprayed with test solutions at an application rate of 200 ppm. After drying, the leaf discs are infested with mite populations of mixed ages. 8 days later, discs are checked for egg mortality, larval mortality, and adult mortality.

Heliothis virescens = Heliothis virescens (tobacco budworm) egg test on artificial diet; conditions: 200 ppm (concentration in well 18 ppm), eggs on artificial diet; egg mortality, larval mortality, growth regulation after 4 days
Protocol: Heliothis virescens (Tobacco Budworm): Eggs (0-24 h old) were placed in 24-well microtiter plate on artificial diet and treated with test solutions at an application rate of 200 ppm (concentration in well 18 ppm) by pipetting. After an incubation period of 4 days, samples were checked for egg mortality, larval mortality, and growth regulation.

Thrips tabaci = Thrips tabaci (onion thrips) sunflower leaf disc test; conditions: 200 ppm sprayed on sunflower leaf discs, mixed ages; mortality after 7 days
Protocol: Thrips tabaci (Onion Thrips): Sunflower leaf discs were placed on agar in a 24-well microtiter plate and sprayed with test solutions at an application rate of 200 ppm. After drying, the leaf discs were infested with a thrips population of mixed ages. After an incubation period of 7 days, samples were checked for mortality.

Diabrotica balteata = Diabrotica balteata (corn root worm) artificial diet test; conditions: 200 ppm (concentration in well 18 ppm), L2 larvae, larval mortality and growth regulation after 5 days
Protocol: (§1) Diabrotica balteata (Corn Root Worm): A 24-well microtiter plate (MTP) with artificial diet was treated with test solutions at an application rate of 200 ppm (concentration in well 18 ppm) by pipetting. After drying, the MTPs were infested with L2 larvae (6-10 per well). After an incubation period of 5 days, samples were checked for larval mortality and growth regulation.

Plutella xylostella = Plutella xylostella (diamond back moth) artificial diet test; conditions: 200 ppm (concentration in well 18 ppm), L2 larvae, larval mortality and growth regulation after 6 days
Protocol: as §1, with “Plutella xylostella (Diamond Back Moth):” for “Diabrotica balteata (Corn Root Worm): A”, “(7-12” for “(6-10”, “6” for “5”

Cc1cc(C2=NSC(c3cc(Cl)cc(Cl)c3)(C(F)(F)F)C2)ccc1C(=O)NCCC1CSC1 (stereo not drawn) [Compound A32]
at least 80%: control of Spodoptera littoralis (Spodoptera littoralis) | control of Tetranychus urticae (Tetranychus urticae) | control of Heliothis virescens (Heliothis virescens) | control of Thrips tabaci (Thrips tabaci) | control of Diabrotica balteata (Diabrotica balteata) | control of Plutella xylostella (Plutella xylostella)

Cc1ccc(CNC(=O)c2ccc(C3=NSC(c4cc(Cl)cc(Cl)c4)(C(F)(F)F)C3)cc2C)cc1 (stereo not drawn) [Compound A61]
at least 80%: control of Spodoptera littoralis (Spodoptera littoralis) | control of Heliothis virescens (Heliothis virescens) | control of Diabrotica balteata (Diabrotica balteata)
